Test results reported in publication PMC10074677.

Assays:
[1] = target: T1, HvANT1 fused with the N-terminal fragment of YFP (Hordeum vulgare L. var. nudum Hook. f. (Qingke)) (UniProt J7QK62); test: split reporter; split YFP (vectors P2YN and P2YC) in tobacco leaf cells, agrobacterium-mediated; dark at 25 °C for 48 h; laser confocal microscope
T1 sequence: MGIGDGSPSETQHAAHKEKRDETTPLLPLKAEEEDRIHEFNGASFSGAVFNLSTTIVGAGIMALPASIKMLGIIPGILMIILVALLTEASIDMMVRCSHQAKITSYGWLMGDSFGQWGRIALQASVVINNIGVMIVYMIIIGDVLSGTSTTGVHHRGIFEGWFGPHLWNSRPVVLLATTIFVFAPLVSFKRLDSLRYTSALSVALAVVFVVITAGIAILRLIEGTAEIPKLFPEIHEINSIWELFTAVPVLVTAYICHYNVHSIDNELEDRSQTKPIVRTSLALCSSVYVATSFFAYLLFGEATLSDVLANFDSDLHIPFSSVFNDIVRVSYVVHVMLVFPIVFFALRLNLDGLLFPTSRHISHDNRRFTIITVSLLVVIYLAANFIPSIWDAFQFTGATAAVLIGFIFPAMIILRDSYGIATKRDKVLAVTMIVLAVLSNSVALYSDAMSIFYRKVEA

[2] = target: T2, HvANT1-BD (Hordeum vulgare L. var. nudum Hook. f. (Qingke)) (UniProt J7QK62); test: two-hybrid; yeast strain AH109; pGBD-T7 (BD) and pGAD-T7 (AD) fusions; growth on SD-THA (SD/-Trp-His-Ade) medium supplemented with 40 mM 3-AT
T2 sequence: T1 sequence

[3] = target: HvANT2 fused with the N-terminal fragment of YFP (Hordeum vulgare L. var. nudum Hook. f. (Qingke)); test: split reporter; split YFP (vectors P2YN and P2YC) in tobacco leaf cells, agrobacterium-mediated; dark at 25 °C for 48 h; laser confocal microscope

## HvWD40-140 fused with the C-terminal fragment of YFP
[1]
  binding: binds

## HvWD40-140-AD
[2]
  binding: binds

B1: HvANT1 fused with the C-terminal fragment of YFP (protein, UniProt J7QK62 1-459)
chain: T1 sequence
[3]
  binding: binds

Results are given in words; binding and its absence hold for the method and conditions named. Binding calls can cover weak binding; strength is not graded here. Where a sequence is shown, tags or fusion partners need not be part of it. For part of these data: In cells and extracts the contact can be indirect.
